Source: patent US20210310005A1
No constants are given. Whether binding was seen depends on the method and setting. In cells and extracts the contact can be indirect. Some results given as binding are weak or reduced against the parent protein; the word gives no strength. Sequences can lack the tags named with a protein.

The chains behind the UniProt entries cited, without tags or fusion partners. Residues count along the entry.
UniProt P35579, residues 2-1960: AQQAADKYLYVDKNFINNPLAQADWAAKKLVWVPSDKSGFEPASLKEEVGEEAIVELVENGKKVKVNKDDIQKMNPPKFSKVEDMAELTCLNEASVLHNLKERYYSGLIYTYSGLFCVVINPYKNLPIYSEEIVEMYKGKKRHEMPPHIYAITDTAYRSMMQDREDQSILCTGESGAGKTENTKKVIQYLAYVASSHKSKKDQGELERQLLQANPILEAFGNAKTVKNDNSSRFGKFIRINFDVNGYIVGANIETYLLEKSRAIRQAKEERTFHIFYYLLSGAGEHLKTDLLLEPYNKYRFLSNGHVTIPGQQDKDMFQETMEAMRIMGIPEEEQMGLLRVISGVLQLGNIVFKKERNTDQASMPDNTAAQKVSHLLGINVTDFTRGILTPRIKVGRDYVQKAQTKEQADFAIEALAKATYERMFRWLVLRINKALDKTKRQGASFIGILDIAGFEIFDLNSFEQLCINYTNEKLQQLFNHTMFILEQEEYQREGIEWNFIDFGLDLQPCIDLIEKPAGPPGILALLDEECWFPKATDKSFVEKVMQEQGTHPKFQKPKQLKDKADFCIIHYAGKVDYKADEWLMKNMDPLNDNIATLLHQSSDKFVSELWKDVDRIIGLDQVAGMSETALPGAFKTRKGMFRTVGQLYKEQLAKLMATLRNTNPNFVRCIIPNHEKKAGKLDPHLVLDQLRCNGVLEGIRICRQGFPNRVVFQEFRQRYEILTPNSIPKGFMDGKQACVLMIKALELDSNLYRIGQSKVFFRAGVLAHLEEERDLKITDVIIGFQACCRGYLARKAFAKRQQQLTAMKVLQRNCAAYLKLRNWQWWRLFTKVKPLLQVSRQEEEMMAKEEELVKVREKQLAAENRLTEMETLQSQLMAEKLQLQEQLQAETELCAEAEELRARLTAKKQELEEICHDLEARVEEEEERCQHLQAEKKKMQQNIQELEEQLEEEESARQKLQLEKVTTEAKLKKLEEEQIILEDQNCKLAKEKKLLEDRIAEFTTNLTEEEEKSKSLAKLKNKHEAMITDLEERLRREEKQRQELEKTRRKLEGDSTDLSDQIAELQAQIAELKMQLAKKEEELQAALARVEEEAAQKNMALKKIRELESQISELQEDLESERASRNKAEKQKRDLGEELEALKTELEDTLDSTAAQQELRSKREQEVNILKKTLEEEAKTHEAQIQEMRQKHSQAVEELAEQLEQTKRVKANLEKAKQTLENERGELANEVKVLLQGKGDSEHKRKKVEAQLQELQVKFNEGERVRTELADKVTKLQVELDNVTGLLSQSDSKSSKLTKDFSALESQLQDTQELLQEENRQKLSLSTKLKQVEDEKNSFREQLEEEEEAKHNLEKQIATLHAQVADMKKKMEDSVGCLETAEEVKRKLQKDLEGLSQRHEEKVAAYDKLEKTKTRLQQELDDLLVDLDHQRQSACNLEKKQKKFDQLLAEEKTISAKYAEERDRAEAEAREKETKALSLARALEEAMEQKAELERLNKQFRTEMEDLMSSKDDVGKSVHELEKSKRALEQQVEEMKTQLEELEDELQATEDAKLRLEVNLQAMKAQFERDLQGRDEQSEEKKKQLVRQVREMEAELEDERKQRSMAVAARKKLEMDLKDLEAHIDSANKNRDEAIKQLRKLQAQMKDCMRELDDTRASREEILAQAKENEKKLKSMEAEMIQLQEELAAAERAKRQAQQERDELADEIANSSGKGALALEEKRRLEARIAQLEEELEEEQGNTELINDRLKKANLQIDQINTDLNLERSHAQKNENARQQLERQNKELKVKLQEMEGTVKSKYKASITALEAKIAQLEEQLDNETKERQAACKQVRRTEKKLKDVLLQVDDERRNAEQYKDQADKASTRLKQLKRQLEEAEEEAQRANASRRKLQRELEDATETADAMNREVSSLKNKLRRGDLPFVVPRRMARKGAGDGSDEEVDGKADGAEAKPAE

How the values were obtained:
[1] = molecular target: non-muscle myosin IIA; NMIIA (MYH9) (human) (UniProt P35579); assay: co-immunoprecipitation from MDA-MB-231 lysate with anti-Myc magnetic beads, Western blot
[2] = molecular target: non-muscle myosin IIA; NMIIA (MYH9) (human) (UniProt P35579); assay: co-immunoprecipitation with anti-Myc antibody-binding carrier, SDS-PAGE and Western blot

binding [1]: binds
binding [2]: binds
B1: HSP47:Myc (HSP47 with a Myc tag, expressed from the pCMV6-HSP47-Myc plasmid in MDA-MB-231 cells) (protein, human, UniProt P50454 19-418, looked up, not shown: small tags and cut ends)
chain: AEVKKPAAAAAPGTAEKLSPKAATLAERSAGLAFSLYQAMAKDQAVENILVSPVVVASSLGLVSLGGKATTASQAKAVLSAEQLRDEEVHAGLGELLRSLSNSTARNVTWKLGSRLYGPSSVSFADDFVRSSKQHYNCEHSKINFRDKRSALQSINEWAAQTTDGKLPEVTKDVERTDGALLVNAMFFKPHWDEKFHHKMVDNRGFMVTRSYTVGVMMMHRTGLYNYYDDEKEKLQIVEMPLAHKLSSLIILMPHHVEPLERLEKLLTKEQLKIWMGKMQKKAVAISLPKGVVEVTHDLQKHLAGLGLTEAIDKNKADLSRMSGKKDLYLASVFHATAFELDTDGNPFDQDIYGREELRSPKLFYADHPFIFLVRDTQSGSLLFIGRLVRPKGDKMRDEL
